Literature values, collected in US20230414583A1, “LYSERGIC ACID DERIVATIVES WITH MODIFIED LSD-LIKE ACTION” (Mind Medicine, Inc., priority 2022, published 2023).

Details: humans, cited from earlier work

CCN(CC)C(=O)[C@@H]1C=C2c3cccc4[nH]cc(c34)C[C@H]2N(C)C1 [LSD, 9,10-Didehydro-N,N-diethyl-6-methylergoline-8R-carboxamide]
time of peak subjective effects (psychoactive doses): 2 to 4 h | time to appearance of subjective effects (psychoactive doses): 15 to 60 min | duration of action (acute effects): 8 to 12 h
